Assay results published in patent US20240382626A1, “IRRADIATION AMENABLE LIPOSOMAL DYE AGGREGATES AND METHODS OF SYNTHESIS AND USE THEREOF” (Board of Regents, The University of Texas System, priority 2023, published 2024).
Some entries share one result that the patent states for a list of compounds.

Columns and labels:
[1] = tested on: HUVECs; test: MTS cytotoxicity assay; format: cell-based; conditions: 24 hours of incubation
Description: The cytotoxicity of L-JA, IcG-JA, and IcG was evaluated on HUVECs and HEK-293T cell lines. The HUVECs were cultured in MCDB-131 medium supplemented with 10% (v/v) fetal bovine serum, 1% L-glutamine, 1% penicillin-streptomycin, and 1% endothelial cell growth supplement. The HEK-293T cells were cultured in Dulbecco's modified Eagle medium (DMEM) supplemented with 10% (v/v) fetal bovine serum and 1% penicillin-streptomycin. Both cell lines were incubated at 37° C. with 5% CO2 in a humidified atmosphere. The HUVEC and HEK-293T cells were seeded at the density of 10,000 cells per well and 5,000 cells per well in 96 well plates. After 24 hours, the culture media was replaced with fresh media containing L-JA, IcG-JA, and IcG at the concentration of 0.25 mM, 0.2 mM, 0.1 mM, and 0.05 mM. Cells incubated without particles were used as a control group. After 24 hours, the culture media was replaced with […] of fresh media. 20 μl of a mixture of [3-(4,5-dimethylthiazol-2-yl)-5-(3-carboxymethoxyphenyl)-2-(4-sulfophenyl)-2H-tetrazolium] (MTS) and phenazine ethosulfate (PES) was then added to each well. The cells were further incubated for 4 hours at 37° C. The absorbance signal at 490 nm was measured using a BioTek plate reader.

[2] = tested on: HEK-293T cells; test: MTS cytotoxicity assay; format: cell-based; conditions: 24 hours of incubation
[3] = In vitro photothermal heating with 808 nm and 852 nm lasers; conditions: 808 nm laser, over about 20 seconds
From the text: To assess the heating capacity of IcG and L-JA solutions, two different laser setups were utilized. All laser components including diodes, mounts, fiber optic cables, lens, and adapters were acquired from ThorLabs (Thorlabs Inc., Newton, NJ, USA) Two different laser diodes, one 808 nm the other 852 nm, were mounted, aligned, and focused in view of a high-resolution IR camera and tracked using accompanying software (Teledyne FLIR, Wilsonville, OR, USA). The 852 nm laser system included an optical isolator (ThorLabs) in the light path as recommended by the manufacturer, but otherwise the systems were identical. Laser power was calibrated to 1 W/cm^2 for both lasers and across all experiments. All experiments were conducted in 24- or 96-well plates filled with corresponding contrast agent solutions placed at the focus of the laser and IR camera.

SMILES: CC1(C)C(/C=C/C=C/C=C/C=C2\N(CCCCS(=O)(=O)O)c3ccc4ccccc4c3C2(C)C)=[N+](CCCCS(=O)(=O)[O-])c2ccc3ccccc3c21 [IcG, Indocyanine Green]
- concentration below which minimal cytotoxicity was observed [1]: below 0.2 mM
- concentration below which minimal cytotoxicity was observed [2]: below 0.2 mM
- temperature reached on laser heating [3]: > 60 °C
